Laboratory results reported in the supplement of paper PMC12819154, “High-throughput peptide-centric local stability assay extends protein–ligand identification to membrane proteins, tissues and bacteria” (Nature Structural & Molecular Biology, 2025).
The other results are listed elsewhere or left out. Most values lie at the level of the controls, where differences are scatter.

Amino acid sequences for entries named in this document (tags omitted). A change or cut given only in a name is not applied to a line headed by its entry.
UniProt P75937: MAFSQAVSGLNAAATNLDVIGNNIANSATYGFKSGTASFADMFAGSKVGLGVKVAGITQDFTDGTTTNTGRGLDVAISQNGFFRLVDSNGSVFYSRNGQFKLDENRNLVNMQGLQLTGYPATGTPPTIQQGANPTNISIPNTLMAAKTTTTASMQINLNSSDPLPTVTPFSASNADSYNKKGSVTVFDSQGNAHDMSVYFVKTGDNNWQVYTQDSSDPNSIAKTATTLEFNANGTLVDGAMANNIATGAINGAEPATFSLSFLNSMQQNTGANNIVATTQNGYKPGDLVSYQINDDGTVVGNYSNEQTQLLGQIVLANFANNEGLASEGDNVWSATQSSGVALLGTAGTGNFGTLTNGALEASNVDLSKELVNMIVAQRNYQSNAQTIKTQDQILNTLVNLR
UniProt P76471: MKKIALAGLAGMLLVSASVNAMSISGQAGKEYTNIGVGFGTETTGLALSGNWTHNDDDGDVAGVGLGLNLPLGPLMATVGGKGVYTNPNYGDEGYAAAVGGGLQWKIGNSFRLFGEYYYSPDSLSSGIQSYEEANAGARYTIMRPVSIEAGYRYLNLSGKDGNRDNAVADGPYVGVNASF
UniProt P76268: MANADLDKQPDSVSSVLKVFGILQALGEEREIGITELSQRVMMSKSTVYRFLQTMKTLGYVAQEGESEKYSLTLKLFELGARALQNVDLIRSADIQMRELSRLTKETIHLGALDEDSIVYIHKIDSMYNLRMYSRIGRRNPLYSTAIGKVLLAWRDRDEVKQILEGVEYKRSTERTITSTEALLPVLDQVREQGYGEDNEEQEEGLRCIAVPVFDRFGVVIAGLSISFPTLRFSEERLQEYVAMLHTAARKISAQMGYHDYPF
UniProt P77546: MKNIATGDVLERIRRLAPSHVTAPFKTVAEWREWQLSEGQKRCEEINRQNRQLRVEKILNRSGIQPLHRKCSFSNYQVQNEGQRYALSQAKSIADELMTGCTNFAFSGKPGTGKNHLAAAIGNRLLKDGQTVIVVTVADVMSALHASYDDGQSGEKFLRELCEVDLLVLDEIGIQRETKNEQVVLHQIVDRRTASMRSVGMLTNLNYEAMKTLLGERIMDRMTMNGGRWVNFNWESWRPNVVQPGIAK
UniProt P77529: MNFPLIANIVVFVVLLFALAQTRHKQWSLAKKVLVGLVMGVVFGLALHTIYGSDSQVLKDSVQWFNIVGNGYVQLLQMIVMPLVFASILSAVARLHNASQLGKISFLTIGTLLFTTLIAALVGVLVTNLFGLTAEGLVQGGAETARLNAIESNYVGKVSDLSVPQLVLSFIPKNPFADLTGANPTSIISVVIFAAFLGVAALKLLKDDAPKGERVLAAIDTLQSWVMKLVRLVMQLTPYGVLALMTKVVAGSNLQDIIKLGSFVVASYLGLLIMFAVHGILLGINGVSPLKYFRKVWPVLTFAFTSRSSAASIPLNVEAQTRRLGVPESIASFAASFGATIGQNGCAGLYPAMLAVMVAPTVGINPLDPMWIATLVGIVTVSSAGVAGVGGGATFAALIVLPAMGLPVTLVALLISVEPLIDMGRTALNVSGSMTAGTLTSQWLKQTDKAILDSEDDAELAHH
UniProt P77329: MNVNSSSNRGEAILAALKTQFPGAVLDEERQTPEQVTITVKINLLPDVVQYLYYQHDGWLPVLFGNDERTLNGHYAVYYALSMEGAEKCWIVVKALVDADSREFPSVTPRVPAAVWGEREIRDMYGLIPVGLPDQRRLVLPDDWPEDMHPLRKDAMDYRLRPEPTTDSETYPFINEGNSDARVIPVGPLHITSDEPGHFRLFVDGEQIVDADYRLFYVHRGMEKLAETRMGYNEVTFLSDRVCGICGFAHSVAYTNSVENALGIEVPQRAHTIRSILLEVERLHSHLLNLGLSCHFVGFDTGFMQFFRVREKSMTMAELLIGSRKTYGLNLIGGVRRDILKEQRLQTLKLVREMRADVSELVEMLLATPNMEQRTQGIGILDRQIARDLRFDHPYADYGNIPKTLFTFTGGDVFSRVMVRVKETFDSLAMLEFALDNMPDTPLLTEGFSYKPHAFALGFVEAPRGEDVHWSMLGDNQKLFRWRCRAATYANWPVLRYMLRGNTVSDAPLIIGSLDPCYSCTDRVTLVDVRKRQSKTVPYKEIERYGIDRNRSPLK
UniProt P76104: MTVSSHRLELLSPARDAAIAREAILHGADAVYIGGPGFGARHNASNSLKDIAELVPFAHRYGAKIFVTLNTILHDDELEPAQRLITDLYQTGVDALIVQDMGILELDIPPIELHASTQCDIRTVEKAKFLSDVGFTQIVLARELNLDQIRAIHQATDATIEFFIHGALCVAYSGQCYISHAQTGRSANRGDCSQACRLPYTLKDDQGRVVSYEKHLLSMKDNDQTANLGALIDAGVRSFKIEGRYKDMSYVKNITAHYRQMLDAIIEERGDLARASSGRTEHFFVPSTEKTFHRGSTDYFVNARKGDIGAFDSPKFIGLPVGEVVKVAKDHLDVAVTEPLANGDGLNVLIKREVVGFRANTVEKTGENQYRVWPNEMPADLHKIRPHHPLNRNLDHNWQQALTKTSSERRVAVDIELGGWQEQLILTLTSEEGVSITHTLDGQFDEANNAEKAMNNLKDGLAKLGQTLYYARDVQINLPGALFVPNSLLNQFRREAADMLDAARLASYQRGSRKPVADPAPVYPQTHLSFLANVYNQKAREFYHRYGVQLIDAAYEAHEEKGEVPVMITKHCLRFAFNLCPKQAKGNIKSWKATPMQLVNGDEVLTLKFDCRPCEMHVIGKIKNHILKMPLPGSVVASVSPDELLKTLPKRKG
UniProt P77202: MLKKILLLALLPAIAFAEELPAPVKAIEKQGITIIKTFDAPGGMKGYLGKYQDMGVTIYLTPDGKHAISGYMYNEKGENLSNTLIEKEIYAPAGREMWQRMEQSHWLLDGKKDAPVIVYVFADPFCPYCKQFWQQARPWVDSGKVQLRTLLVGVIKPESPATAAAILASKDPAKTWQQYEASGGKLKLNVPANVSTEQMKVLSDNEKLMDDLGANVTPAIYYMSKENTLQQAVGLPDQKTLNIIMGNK
UniProt P76190: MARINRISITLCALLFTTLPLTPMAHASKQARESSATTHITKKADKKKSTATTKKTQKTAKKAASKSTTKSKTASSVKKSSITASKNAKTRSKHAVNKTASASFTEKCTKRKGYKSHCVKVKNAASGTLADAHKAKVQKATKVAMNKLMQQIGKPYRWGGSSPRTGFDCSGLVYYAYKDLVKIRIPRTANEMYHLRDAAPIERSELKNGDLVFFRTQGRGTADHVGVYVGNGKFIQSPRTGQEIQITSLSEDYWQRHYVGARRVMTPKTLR
UniProt P76546: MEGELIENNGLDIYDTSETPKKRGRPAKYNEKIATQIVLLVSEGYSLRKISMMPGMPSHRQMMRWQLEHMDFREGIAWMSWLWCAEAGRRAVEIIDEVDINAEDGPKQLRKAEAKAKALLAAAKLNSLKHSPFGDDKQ
UniProt P77161: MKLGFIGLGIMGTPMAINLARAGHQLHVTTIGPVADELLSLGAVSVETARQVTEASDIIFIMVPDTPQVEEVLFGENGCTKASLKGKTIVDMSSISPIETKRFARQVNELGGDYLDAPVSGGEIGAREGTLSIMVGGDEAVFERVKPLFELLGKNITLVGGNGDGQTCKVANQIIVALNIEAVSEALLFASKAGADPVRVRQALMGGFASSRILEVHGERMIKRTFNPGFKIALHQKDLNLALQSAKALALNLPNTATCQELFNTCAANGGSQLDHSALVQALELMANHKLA
UniProt P77318: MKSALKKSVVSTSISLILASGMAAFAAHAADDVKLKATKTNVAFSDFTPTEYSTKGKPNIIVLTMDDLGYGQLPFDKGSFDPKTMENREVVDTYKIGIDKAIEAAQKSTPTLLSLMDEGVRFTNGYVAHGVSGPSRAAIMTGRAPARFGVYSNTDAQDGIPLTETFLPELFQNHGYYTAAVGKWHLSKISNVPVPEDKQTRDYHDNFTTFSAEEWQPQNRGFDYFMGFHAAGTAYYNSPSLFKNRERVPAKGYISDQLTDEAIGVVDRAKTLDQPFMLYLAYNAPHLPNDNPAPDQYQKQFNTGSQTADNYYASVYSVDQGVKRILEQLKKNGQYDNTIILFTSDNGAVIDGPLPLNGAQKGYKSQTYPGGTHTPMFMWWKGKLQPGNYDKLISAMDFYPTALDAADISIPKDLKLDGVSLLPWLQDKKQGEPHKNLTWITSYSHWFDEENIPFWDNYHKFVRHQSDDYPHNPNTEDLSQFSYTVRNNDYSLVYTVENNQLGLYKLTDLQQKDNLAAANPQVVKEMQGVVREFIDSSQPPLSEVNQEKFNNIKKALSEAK

Compound: CC1(C)S[C@@H]2[C@H](NC(=O)[C@H](N)c3ccccc3)C(=O)N2[C@H]1C(=O)O [ampicillin]
Experiment: log2 fold change of tryptic peptide abundance, ligand vs vehicle (limited proteolysis) (log2 ratio); higher = more trypsin-susceptible (destabilized)
Settings: ligand concentration: 10 uM; sample: E. coli crude lysate

Target	log2 fold change
UniProt P75937 (peptide sequence: ELVNMIVAQR, peptide start residue: 370)	-0.0294
UniProt P76471 (peptide sequence: YTIMRPVSIEAGYR, peptide start residue: 140)	0.0169
UniProt P76268 (peptide sequence: QILEGVEYK, peptide start residue: 162)	0.135
UniProt P77546 (peptide sequence: RLAPSHVTAPFK, peptide start residue: 15)	-0.213
UniProt P77529 (peptide sequence: QTDKAILDSEDDAELAHH, peptide start residue: 446)	-0.341
UniProt P77329 (peptide sequence: GEAILAALK, peptide start residue: 10)	-0.62
UniProt P76104 (peptide sequence: GSTDYFVNAR, peptide start residue: 295)	-0.136
UniProt P77202 (peptide sequence: TLNIIMGNK, peptide start residue: 240)	-0.0802
UniProt P76190 (peptide sequence: ESSATTHITK, peptide start residue: 33)	-0.0729
UniProt P76546 (peptide sequence: HSPFGDDKQ, peptide start residue: 130)	0.0974
UniProt P77161 (peptide sequence: QALMGGFASSR, peptide start residue: 202)	-0.444
UniProt P77318 (peptide sequence: EFIDSSQPPLSEVNQEKFNNIKK, peptide start residue: 532)	0.334
